These are yes or no findings as the source states them, for the method shown. Binding seen in cells or lysates may run through a third protein. Some binding calls cover weakened binding; strength is not graded here. Where a sequence is shown, tags or fusion partners need not be part of it.
Molecular target: T1, Flag-CPEB4 (cytoplasmic polyadenylation element binding protein CPEB4) (human (cDNA from HEK293T cells)) (UniProt Q17RY0)
T1 sequence: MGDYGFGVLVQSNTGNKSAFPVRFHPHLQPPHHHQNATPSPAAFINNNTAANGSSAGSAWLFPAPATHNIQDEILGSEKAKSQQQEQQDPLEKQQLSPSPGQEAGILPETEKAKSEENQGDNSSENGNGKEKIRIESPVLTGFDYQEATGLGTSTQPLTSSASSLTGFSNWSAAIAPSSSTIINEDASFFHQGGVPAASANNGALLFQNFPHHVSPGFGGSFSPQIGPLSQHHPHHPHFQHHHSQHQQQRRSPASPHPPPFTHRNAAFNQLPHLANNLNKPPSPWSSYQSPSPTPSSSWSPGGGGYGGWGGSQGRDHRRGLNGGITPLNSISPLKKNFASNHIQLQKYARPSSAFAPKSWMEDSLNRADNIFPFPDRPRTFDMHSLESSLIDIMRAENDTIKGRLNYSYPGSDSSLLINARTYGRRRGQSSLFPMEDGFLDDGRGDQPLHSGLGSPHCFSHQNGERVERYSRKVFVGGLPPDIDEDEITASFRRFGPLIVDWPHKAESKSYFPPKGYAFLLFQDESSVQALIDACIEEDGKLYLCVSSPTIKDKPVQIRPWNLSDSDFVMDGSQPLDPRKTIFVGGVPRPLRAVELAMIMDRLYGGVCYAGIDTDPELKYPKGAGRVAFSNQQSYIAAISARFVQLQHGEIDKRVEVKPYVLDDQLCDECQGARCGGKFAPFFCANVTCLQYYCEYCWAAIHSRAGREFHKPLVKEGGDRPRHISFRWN
Test: co-IP; 293T cells transfected with the indicated constructs; lysates precleared, primary antibody with protein A/G agarose beads at 4 °C overnight, western blot; also with RNase A treatment and with cDOPEY2 silencing

The chains behind the UniProt entries cited, without tags or fusion partners.
UniProt Q14258: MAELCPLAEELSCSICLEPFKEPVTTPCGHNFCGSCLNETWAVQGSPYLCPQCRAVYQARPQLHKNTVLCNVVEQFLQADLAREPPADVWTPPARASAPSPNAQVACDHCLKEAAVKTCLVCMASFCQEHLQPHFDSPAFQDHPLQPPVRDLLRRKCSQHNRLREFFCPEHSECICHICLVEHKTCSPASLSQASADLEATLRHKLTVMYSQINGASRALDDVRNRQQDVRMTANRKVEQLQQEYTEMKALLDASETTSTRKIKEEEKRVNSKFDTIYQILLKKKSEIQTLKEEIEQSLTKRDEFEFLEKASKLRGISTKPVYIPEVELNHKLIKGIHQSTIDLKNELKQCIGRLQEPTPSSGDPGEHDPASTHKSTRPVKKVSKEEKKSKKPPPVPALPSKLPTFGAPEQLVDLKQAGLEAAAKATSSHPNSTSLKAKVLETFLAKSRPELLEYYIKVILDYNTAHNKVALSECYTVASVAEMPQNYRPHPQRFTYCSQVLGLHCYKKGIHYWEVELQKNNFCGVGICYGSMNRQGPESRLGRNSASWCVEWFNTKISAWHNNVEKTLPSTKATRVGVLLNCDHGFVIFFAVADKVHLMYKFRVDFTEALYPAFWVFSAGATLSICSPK

binding: binds
Substance: myc-TRIM25 (E3 ligase TRIM25, wild type) (from UniProt Q14258 1-630) (enzyme)

From article PMC8591801
